For one compound, Hb results are on record in patent US12215133B2 (BrightGene Bio-Medical Technology Co., Ltd., priority 2021, dated 2025).

For the data set, the system named is db/db mice. Briefly: Inhibitory effect of BG128 on hyperglycemia in db/db mice (Experimental Example 3). Format: in vivo. The settings on record: anticoagulated whole blood, end of experiment, Mean ± SEM. The method, then:
55 6-8 week-old SPF-grade male db/db mice were purchased from Zhejiang Vital River Experimental Animal Technology Co., Ltd.
According to the dosage regimen in Table 7, a certain amount of Tirzepatide and BG128 were weighed and the vehicle (pH=7.0, 20 mM sodium citrate buffer) was added to formulated to the corresponding concentration. The formulation was performed once every 7 days, and the formulated mixture was sub-packaged and stored at 2° C.-8° C. in the dark.
Before the administration, according to the body weight and fasting blood glucose, the animals were grouped into: db/db-ND group, Tirzepatide—0.15 mg/kg group, BG128—0.05 mg/kg group, BG128—0.15 mg/kg group and BG128—0.5 mg/kg group, and each group have 11 animals; and see Table 7 for details.
The day of the first administration was recorded as d1, and the time was recorded by analogy; Tirzepatide and BG128 were administered once every three days, and the time points were d1, d4, d7, d10, d13, d16, d19, d22, d25 and d28, a total of 10 administrations; and see Table 7 for details. […]
The food intake of the animals was recorded starting at three days before the grouping for administration until the end of the experiment. […]
2) Fasting blood glucose: the determination dates were respectively d-1 (before grouping), d7, d13, d19, d25 and d31. The animals were fasted for 6 hours, and the fasting blood glucose was determined before administration.
3 days after the last administration, the animals were weighed and fasted for 6 hours, and the fasting blood glucose of the animals was determined; after anesthesia, a portion of non-anticoagulated whole blood was collected through the orbital venous plexus, stood at room temperature for 30 minutes, and centrifuged at 5000 rpm for 5 minutes, the serum was separated and frozen at −80° C. for the determination of serum insulin content; a portion of anticoagulated whole blood was collected for the determination of HbA1c content. The serum insulin was determined by Elisa method.
The data was organized in Excel 2017 and Prism6.0, and the data was expressed as Mean±SEM (standard error). […]

`CNC(CCCCNC(=O)COCCOCCOCCNC(=O)COCCOCCOCCNC(=O)CCC(NC(=O)CC(=O)O)C(=O)O)C(N)=O` (stereo not drawn) [BG128]: the Hb is, setting by setting: (0.05 mg/kg s.c. once every three days) 128.10 ± 5.30; (0.15 mg/kg s.c. once every three days) 131.60 ± 1.23; (0.5 mg/kg s.c. once every three days) 140.80 ± 2.02.
